# According to PubChem BioAssay AID488837 (National Center for Advancing Translational Sciences (NCATS), 2010):
# Chains of the proteins cited; added tags and fusions are not shown. Lines headed by an entry give the natural chain unless they say otherwise; changes in a name come on top.
# UniProt O00167: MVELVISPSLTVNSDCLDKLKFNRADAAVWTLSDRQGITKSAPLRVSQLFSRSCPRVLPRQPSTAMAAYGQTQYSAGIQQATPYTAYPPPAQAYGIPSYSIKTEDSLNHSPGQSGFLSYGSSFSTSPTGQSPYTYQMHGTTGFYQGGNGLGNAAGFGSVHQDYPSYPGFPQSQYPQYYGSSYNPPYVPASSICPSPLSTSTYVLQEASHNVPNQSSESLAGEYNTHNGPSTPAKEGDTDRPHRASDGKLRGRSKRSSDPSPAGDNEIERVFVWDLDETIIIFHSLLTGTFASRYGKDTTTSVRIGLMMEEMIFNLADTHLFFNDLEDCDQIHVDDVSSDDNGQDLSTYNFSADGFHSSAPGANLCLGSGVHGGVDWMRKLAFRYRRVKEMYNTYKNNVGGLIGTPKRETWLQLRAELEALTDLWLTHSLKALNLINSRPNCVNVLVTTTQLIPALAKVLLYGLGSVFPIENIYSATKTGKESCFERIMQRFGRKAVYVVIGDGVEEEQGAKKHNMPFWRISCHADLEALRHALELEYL
# In all, about 330,000 compounds went through this assay and about 20 (0.006%) were called active. The shares of active, inactive and inconclusive entries below differ from those in the screen. The call rests on the fitted dose curve; in most records, active means well fitted inhibition curve with a large enough effect; inconclusive means small, poorly fitted or top-dose-only effect, or effect the other way; inactive means flat fitted curve, though single readings scatter. A potency beside an inconclusive call is a rough fit, not a confirmed value.
# Target: Protein phosphatase EYA2 (Homo sapiens) (UniProt O00167)
# Experiment: qHTS Assay for Inhibitors of the Phosphatase Activity of Eya2
# Conditions: recombinant Eya2, OMFP fluorescence dephosphorylation (OMFP is methylfluorescein phosphate)
# Method in brief: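 Eya2 (0.2 uM) preincubated 10 min at ambient with compound, then OMFP substrate added at 50 uM; 10 min reaction in 50 mM HEPES pH 7.5, 50 mM NaCl, 5 uM MgCl2, 0.05% BSA, 1 mM DTT. Fluorescence read at Ex 485/Em 525 nm.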
# Potency means the concentration at half of the fitted maximal effect.
row,SMILES,Potency
1,CC(C)c1ccc(NNC(=O)C2CCC2)cc1,"inconclusive: 100 µM [inhibitor, single point]"
2,COc1ccc2[nH]c(=O)c(CN(Cc3nnnn3Cc3ccc(F)cc3)CC3CCCO3)cc2c1 (centres undefined),inactive
3,Cn1c2cc(Br)sc2c2cnn(Cc3c(F)cccc3F)c(=O)c21,inactive
4,O=C(O)C1CCN(C(=O)CSc2nnc3ccccn23)CC1,"inconclusive: 50.1 µM [inhibitor, partial curve, poor fit]"
5,COC(=O)c1cc2c(=O)c3ccccc3oc2nc1/C=C/N(C)C,"inconclusive: 100 µM [activator, partial curve]"
6,CC(C)c1ccc(-c2nn(-c3ccccc3)cc2C(=O)NCC2CCCO2)cc1 (centres undefined),"inconclusive: 31.6 µM [inhibitor, partial curve, poor fit]"
7,Cc1cc(C(=O)OCC(=O)Nc2cccc(S(N)(=O)=O)c2)c(C)o1,inactive
8,COc1ccccc1N(CC(=O)Nc1ccc2c(c1)OCCO2)S(=O)(=O)c1ccc(C)cc1,"inconclusive: 22.4 µM [inhibitor, single point]"
9,CC(=O)c1c(C)[nH]c(C(=O)COc2ccc3c(C)cc(=O)oc3c2)c1C,"inconclusive: 112 µM [inhibitor, partial curve]"
10,Cc1cc(C)cc(NC(=O)CN2CCC(NC(=O)c3cccc(F)c3)CC2)c1,"inconclusive: 100 µM [inhibitor, single point]"
11,O=C(Nc1ccccc1C(=O)O)c1cccc(NS(=O)(=O)c2ccc(Br)cc2)c1,inactive
12,Nc1nonc1-n1nnc(C(=O)N/N=C/c2ccoc2)c1CSc1ccc(Cl)cc1,inactive
13,COC(=O)c1cc(-c2ccc(C)cc2)n[nH]1,"inconclusive: 200 µM [inhibitor, partial curve]"
14,CCC1Sc2ccccc2N(CC(=O)NC2CC2)C1=O (centres undefined),inactive
15,Cc1ccc(Oc2ncccc2COC(=O)Nc2ccccc2C)cc1,"inconclusive: 89.1 µM [inhibitor, single point]"
16,Cc1cccc(N2C(=O)C3C4C=CC(C5CC45)C3C2=O)n1 (centres undefined),"inconclusive: 79.4 µM [inhibitor, single point]"
17,Cc1ccc(NC(=O)NNc2cccc(Cl)n2)cc1,"inconclusive: 89.1 µM [inhibitor, partial curve, poor fit]"
18,CCOc1ccc2nc(NCCNC(=O)c3cc(OC)c(OC)c(OC)c3)c(C#N)cc2c1,inactive
19,O=C(NCCC(=O)N1CCCCCCC1)c1ccc(Br)cc1,"inconclusive: 200 µM [activator, partial curve, poor fit]"
20,O=C(CCl)N1CCN2C(=O)c3ccccc3C12c1ccc(Cl)cc1 (centres undefined),"inconclusive: 25.1 µM [inhibitor, single point]"
21,CCCCNc1c(-c2ccc(OC)c(SC(C)CC)c2)nc2ccc(Cl)cn12 (centres undefined),"inconclusive: 56.2 µM [inhibitor, single point]"
22,COc1ccccc1NC(=O)C(=O)/C=C(\O)c1ccccc1,"inconclusive: 501 µM [inhibitor, single point]"
23,S=C(Nc1ccc(Oc2ccccc2)cc1)NC1CCCCC1,inactive

# Part of the list above, as tab-separated lines:
row	SMILES	Potency
20	O=C(CCl)N1CCN2C(=O)c3ccccc3C12c1ccc(Cl)cc1 (centres undefined)	inconclusive: 25.1 µM [inhibitor, single point]
21	CCCCNc1c(-c2ccc(OC)c(SC(C)CC)c2)nc2ccc(Cl)cn12 (centres undefined)	inconclusive: 56.2 µM [inhibitor, single point]
22	COc1ccccc1NC(=O)C(=O)/C=C(\O)c1ccccc1	inconclusive: 501 µM [inhibitor, single point]
23	S=C(Nc1ccc(Oc2ccccc2)cc1)NC1CCCCC1	inactive

# The listing continues.

row,SMILES,Potency
1,COCCNC(=S)NNc1ccc(Cl)c(C(=O)O)c1,"inconclusive: 25.1 µM [inhibitor, single point]"
2,O=C(NC(=S)Nc1ccc2c(c1)OCCO2)c1ccco1,"inconclusive: 22.4 µM [inhibitor, single point]"
3,C/C(=N/NC(=O)c1cc(C2CC2)[nH]n1)c1cccs1,"inconclusive: 14.1 µM [inhibitor, single point]"
4,O=C(OCc1cc([N+](=O)[O-])cc2c1OCOC2)c1ccccn1,"inconclusive: 282 µM [inhibitor, partial curve, poor fit]"
5,COc1ccc(/C=C2\CCC/C(=C\c3ccc(OC)c(OC)c3OC)C2=O)c(OC)c1OC,"inconclusive: 20 µM [inhibitor, single point]"
6,COc1ccc(NC(=O)c2ccc(S(=O)(=O)N3CCCC3)cc2)cc1OC,"inconclusive: 63.1 µM [inhibitor, partial curve]"
7,COc1ccc(OC)c(N(CC(=O)N2CCOCC2)S(C)(=O)=O)c1,"inconclusive: 89.1 µM [inhibitor, single point]"
8,Cc1cc(C)cc(Oc2coc3c(CN(C)C)c(O)ccc3c2=O)c1,inactive
9,COc1cc2cc(C(=O)N[C@@H](Cc3ccccc3)C(=O)O)n(C)c2c(OC)c1OC,"inconclusive: 141 µM [inhibitor, partial curve, poor fit]"
10,CC(C)(CO)NC(=O)C12CC3CC(CC(Br)(C3)C1)C2,inactive
11,CCCc1c2ccccc2nc2ccccc12,inactive
12,Cn1c(=O)cc(OCCCC(=O)NCc2ccco2)c2ccccc21,inactive
13,COc1ccc(C(=O)NNC(=O)C(NC(=O)c2cc(OC)cc(OC)c2)C(C)C)cc1 (centres undefined),inactive
14,CN1C[C@@H]2C(c3ccc(C(F)(F)F)cc3)C3(c4ccccc4)CC2(C3)[C@H]1c1ccccc1 (some centres undefined),"inconclusive: 100 µM [inhibitor, partial curve]"
15,CCOC(=O)c1cc2c(=O)n3ccccc3nc2n(C(C)C)c1=NC(=O)c1ccco1,"inconclusive: 100 µM [inhibitor, single point]"
16,O=C(c1ccc2c(c1)[nH]c(=S)n1c3ccccc3nc21)N1CCN(c2cccc(Cl)c2)CC1,"inconclusive: 100 µM [inhibitor, single point]"
17,Cc1nc2sccn2c(=O)c1S(=O)(=O)NC(C)c1ccccc1 (centres undefined),"inconclusive: 15.8 µM [inhibitor, single point]"
18,CCc1ccc(C(O)(C(C)C)C(CN2CCOCC2)c2ccccc2)cc1 (centres undefined),"inconclusive: 100 µM [inhibitor, single point]"
19,Cn1c(O)c(N=Nc2ccccc2)c2ccccc21,"inconclusive: 89.1 µM [inhibitor, single point]"
20,Cc1ncc(CN2CCCC(CCC(=O)NCc3ccccc3F)C2)s1 (centres undefined),"inconclusive: 22.4 µM [inhibitor, partial curve, poor fit]"
21,O=C(N/N=C/C(Cl)=C/c1ccc([N+](=O)[O-])cc1)C(=O)Nc1ccccc1C(=O)O,inactive
22,Cc1ccc(NC2CCCN(C(=O)c3cc(C(C)C)[nH]n3)C2)cc1C (centres undefined),inactive
23,Cc1cc(Cl)ccc1NC(=O)CN1C(=O)NC2(CCCC2)C1=O,"inconclusive: 12.6 µM [inhibitor, single point]"

row,SMILES,Potency
1,C=CCOc1nc2c(c(=O)n(C)c(=O)n2C)n1Cc1ccccc1,"inconclusive: 89.1 µM [inhibitor, single point]"
2,CCOc1ccc2sc(NS(=O)(=O)c3ccc(N)cc3)nc2c1,"inconclusive: 79.4 µM [inhibitor, single point]"
3,Cc1ccc(S(=O)(=O)N2CCN(CC(=O)N/N=C\c3ccc(O)c(O)c3)CC2)cc1,"inconclusive: 562 µM [inhibitor, single point]"
4,CC(=O)Nc1ccc(NC(=O)COC(=O)c2c(C)nn(-c3ccccc3)c2C)cc1,inactive
5,COc1cc(NC(=O)CN2C(=O)c3ccccc3S2(=O)=O)cc(OC)c1,"inconclusive: 89.1 µM [inhibitor, single point]"
6,O=C1CC(c2cccc(Br)c2)c2cc3c(cc2N1)CCC3 (centres undefined),inactive
7,O=C(O)C(Cc1ccccc1)N1C(=O)/C(=C/c2ccccc2)SC1=S (centres undefined),inactive
8,Cn1c(C(=O)NCc2ccccc2)cc2oc3ccccc3c21,inactive
9,Cc1cc(C)c2ccc(=O)n(CC(=O)N/N=C/c3ccccc3Cl)c2n1,"inconclusive: 22.4 µM [inhibitor, single point]"
10,COc1ccccc1CC(=O)Nc1cc2oc3ccccc3c2cc1OC,inactive
11,COc1ccc(Br)cc1C(=O)Nc1cccc2ncccc12,"inconclusive: 112 µM [inhibitor, partial curve, poor fit]"
12,CCn1c(C)cc(/C=C2/SC(=O)N(CC(=O)N3CCCC3)C2=O)c1C,"inconclusive: 100 µM [inhibitor, single point]"
13,O=C(N/N=C/c1ccc(N2CCOCC2)cc1)c1ccc(O)cc1,"inconclusive: 100 µM [inhibitor, single point]"
14,CC1CCN(S(=O)(=O)c2ccc(NC(=O)C3CC3)cc2)CC1,"inconclusive: 28.2 µM [inhibitor, single point]"
15,Cc1ccc(-c2cnc3n2CCCCC3)cc1,"inconclusive: 63.1 µM [inhibitor, partial curve, poor fit]"
16,CC[n+]1cc(C)ccc1/C=C/c1ccc(N(C)C)cc1,"inconclusive: 200 µM [activator, partial curve, poor fit]"
17,C/C(=N\Nc1ccc([N+](=O)[O-])cc1)c1ccc(C#N)cc1,"inconclusive: 100 µM [inhibitor, single point]"
18,CC(=O)Nc1ccc(SCC(=O)Nc2cc(C)on2)cc1,"inconclusive: 100 µM [inhibitor, single point]"
19,Cc1cc(C)n2nc(SCC(=O)N/N=C/c3ccc(F)cc3)nc2n1,"inconclusive: 20 µM [inhibitor, single point]"
20,CN(C)S(=O)(=O)c1ccc2c(c1)/C(=C/c1cc3c([nH]1)CCCC3)C(=O)N2,"inconclusive: 158 µM [activator, partial curve]"
21,COC(=O)CCCC1=CC2=C(c3ccccc3)C(=O)C(C)(OC(=O)C3CCCC3)C(=O)C2=CN1C1CCCCC1 (centres undefined),inactive
22,COC(=O)C1=C(C)Nc2nc3ccccc3n2C1c1ccccc1F (centres undefined),"inconclusive: 126 µM [inhibitor, single point]"
23,CC1(/[N+]([O-])=C/c2ccc(F)cc2)CCCCC1=O (centres undefined),"inconclusive: 89.1 µM [inhibitor, single point]"
